PubChem BioAssay AID1224830 – NIAID, 2016

- Test: 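Genes whose knock-down alters the TNF-alpha reporter response to LPS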 (primary screen)
- Cells: human THP-1 monocytic leukaemia cells, TNF dual-luciferase reporter clone, PMA-differentiated to macrophage-like cells
- Knock-down reagent: siRNA pool against human genes, 50 nM
- Timing: LPS for 4 h, given about 3 days after siRNA transfection
- Conditions: bacterial LPS (TLR4 ligand), 10 ng/ml
- Detection: 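Ratio of firefly to renilla light, scaled to the plate median and expressed as a robust z-score per replicate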
- Scale: TNF reporter robust z-score: higher = stronger TNF reporter response to LPS
- Call rule: 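Each well counts as active if its z-score is over 2.8 or under -1.5; controls are left without a call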
Here is one part, drawn at random, of about 18,000 deposited reagents. Over the whole deposit, about 2,900 (16%) were called active. 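Calls are made per well; low scores hint the gene aids the LPS response, high scores that it dampens it.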 Entries without a mark were called inactive. Repeated entries: four replicate wells of each siRNA pool. Reagent sequences are not shown.

gene symbol	PubChem SID	TNF reporter robust z-score
HOXB7	SID315449282	0.38
HOXB7	SID315449282	-0.05
HOXB7	SID315449282	0.33
HOXB7	SID315449282	0
TMOD2	SID315456169	-0.59
TMOD2	SID315456169	-0.09
TMOD2	SID315456169	4.16 (active)
TMOD2	SID315456169	3.53 (active)
ZNF488	SID315461452	-1.17
ZNF488	SID315461452	-1.23
ZNF488	SID315461452	-1.6 (active)
ZNF488	SID315461452	-0.81
KLHL31	SID315464782	-0.44
KLHL31	SID315464782	0.9
KLHL31	SID315464782	-0.32
KLHL31	SID315464782	-0.13
ANP32B	SID315454175	-0.44
ANP32B	SID315454175	0.07
ANP32B	SID315454175	-0.64
ANP32B	SID315454175	0.04
ZNF597	SID315462279	0.31
ZNF597	SID315462279	0.23
ZNF597	SID315462279	-0.06
ZNF597	SID315462279	0.3
PTPRN2	SID315450974	0.36
PTPRN2	SID315450974	-0.65
PTPRN2	SID315450974	-0.17
PTPRN2	SID315450974	-0.89
UGT2B4	SID315452067	3.16 (active)
UGT2B4	SID315452067	-0.91
UGT2B4	SID315452067	-1.19
UGT2B4	SID315452067	-1.72 (active)
ZNF142	SID315452250	-0.83
ZNF142	SID315452250	-0.68
ZNF142	SID315452250	0.01
ZNF142	SID315452250	-0.35
LILRA6	SID315459240	1.84
LILRA6	SID315459240	0.08
LILRA6	SID315459240	-0.74
LILRA6	SID315459240	0.87
PTPDC1	SID315462047	-1.39
PTPDC1	SID315462047	-1.24
PTPDC1	SID315462047	-0.57
PTPDC1	SID315462047	-0.6
CD33	SID315447781	-0.04
CD33	SID315447781	-0.73
CD33	SID315447781	-0.93
CD33	SID315447781	-0.58
H4C3	SID315452515	-0.89
H4C3	SID315452515	-0.92
H4C3	SID315452515	-0.82
H4C3	SID315452515	-0.79
VBP1	SID315452102	-2.28 (active)
VBP1	SID315452102	0.44
VBP1	SID315452102	-0.53
VBP1	SID315452102	0.52
PROK2	SID315458733	-1.35
PROK2	SID315458733	0.18
PROK2	SID315458733	-0.61
PROK2	SID315458733	-0.27
FAAP20	SID315463015	0.18
FAAP20	SID315463015	-0.18
FAAP20	SID315463015	-0.02
FAAP20	SID315463015	-0.01
ATG10	SID315460075	-0.02
ATG10	SID315460075	-0.58
ATG10	SID315460075	0.45
ATG10	SID315460075	-0.11
AANAT	SID315447123	-1.19
AANAT	SID315447123	-1.03
AANAT	SID315447123	-0.48
AANAT	SID315447123	0.36
SLC8A2	SID315451481	-1.33
SLC8A2	SID315451481	-0.3
SLC8A2	SID315451481	-0.94
SLC8A2	SID315451481	0.49
CCDC85A	SID315461249	1.35
CCDC85A	SID315461249	0.21
CCDC85A	SID315461249	0.48
CCDC85A	SID315461249	0.49
CD180	SID315449826	-0.7
CD180	SID315449826	0.41
CD180	SID315449826	0.35
CD180	SID315449826	-0.1
C19orf47	SID315461716	0.13
C19orf47	SID315461716	-0.72
C19orf47	SID315461716	0.02
C19orf47	SID315461716	-0.25
FLNC	SID315448728	1.7
FLNC	SID315448728	1.28
FLNC	SID315448728	0.38
FLNC	SID315448728	2.07
TTLL3	SID315455686	2.02
TTLL3	SID315455686	1.45
TTLL3	SID315455686	2.98 (active)
TTLL3	SID315455686	5.31 (active)
MAGEF1	SID315458831	0.86
MAGEF1	SID315458831	-0.37
MAGEF1	SID315458831	-1.57 (active)
MAGEF1	SID315458831	-0.89
DHRS3	SID315453153	1.56
DHRS3	SID315453153	1.27
DHRS3	SID315453153	1.8
DHRS3	SID315453153	3.2 (active)
OR10AG1	SID315463621	-0.85
OR10AG1	SID315463621	-0.63
OR10AG1	SID315463621	-0.03
OR10AG1	SID315463621	0.19
DIAPH3	SID315459925	-0.16
DIAPH3	SID315459925	-1.36
DIAPH3	SID315459925	0.63
DIAPH3	SID315459925	0.43
DOCK7	SID315460690	2.24
DOCK7	SID315460690	3.21 (active)
DOCK7	SID315460690	-0.58
DOCK7	SID315460690	0.25
TM4SF19	SID315461357	-0.7
TM4SF19	SID315461357	-1.26
TM4SF19	SID315461357	-0.4
TM4SF19	SID315461357	-0.63
PAGR1	SID315459288	-0.77
PAGR1	SID315459288	0.4
PAGR1	SID315459288	-0.27
PAGR1	SID315459288	-0.72
LMAN2	SID315454491	-0.72
LMAN2	SID315454491	-0.82
LMAN2	SID315454491	-0.54
LMAN2	SID315454491	-0.12
ZSCAN26	SID315452272	-1.54 (active)
ZSCAN26	SID315452272	-0.82
ZSCAN26	SID315452272	-0.73
ZSCAN26	SID315452272	-1.06
BAHCC1	SID315458495	2.14
BAHCC1	SID315458495	2.3
BAHCC1	SID315458495	1.61
BAHCC1	SID315458495	1.27
CEPT1	SID315454049	-1.5
CEPT1	SID315454049	-1.52 (active)
CEPT1	SID315454049	-1.24
CEPT1	SID315454049	-1.2
